Measured values as given in article PMC11066113.
Results are given in words; binding and its absence hold for the method and conditions named. In cells and extracts the contact can be indirect. For part of these data: Binding calls can cover weak binding; strength is not graded here.

Protein sequences, listed by entry. Tags and fused reporters are not part of them. Lines headed by an entry give the natural chain unless they say otherwise; changes in a name come on top. Residues count along the entry.
UniProt O60603, residues 21-588: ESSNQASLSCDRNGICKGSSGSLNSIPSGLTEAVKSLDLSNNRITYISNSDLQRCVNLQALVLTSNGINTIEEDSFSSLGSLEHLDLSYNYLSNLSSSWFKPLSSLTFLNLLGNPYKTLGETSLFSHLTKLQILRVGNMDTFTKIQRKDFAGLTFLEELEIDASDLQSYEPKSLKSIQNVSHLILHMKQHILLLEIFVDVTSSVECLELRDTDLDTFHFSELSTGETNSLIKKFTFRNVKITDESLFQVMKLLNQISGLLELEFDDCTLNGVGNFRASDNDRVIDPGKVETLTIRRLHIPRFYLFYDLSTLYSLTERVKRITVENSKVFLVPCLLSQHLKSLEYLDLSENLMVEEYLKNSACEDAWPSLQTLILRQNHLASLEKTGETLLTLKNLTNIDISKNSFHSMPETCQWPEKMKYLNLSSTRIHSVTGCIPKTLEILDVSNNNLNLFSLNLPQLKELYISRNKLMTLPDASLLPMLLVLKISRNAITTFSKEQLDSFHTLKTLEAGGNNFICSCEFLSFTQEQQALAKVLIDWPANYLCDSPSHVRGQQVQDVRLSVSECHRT
UniProt Q9JLF7, residues 27-641: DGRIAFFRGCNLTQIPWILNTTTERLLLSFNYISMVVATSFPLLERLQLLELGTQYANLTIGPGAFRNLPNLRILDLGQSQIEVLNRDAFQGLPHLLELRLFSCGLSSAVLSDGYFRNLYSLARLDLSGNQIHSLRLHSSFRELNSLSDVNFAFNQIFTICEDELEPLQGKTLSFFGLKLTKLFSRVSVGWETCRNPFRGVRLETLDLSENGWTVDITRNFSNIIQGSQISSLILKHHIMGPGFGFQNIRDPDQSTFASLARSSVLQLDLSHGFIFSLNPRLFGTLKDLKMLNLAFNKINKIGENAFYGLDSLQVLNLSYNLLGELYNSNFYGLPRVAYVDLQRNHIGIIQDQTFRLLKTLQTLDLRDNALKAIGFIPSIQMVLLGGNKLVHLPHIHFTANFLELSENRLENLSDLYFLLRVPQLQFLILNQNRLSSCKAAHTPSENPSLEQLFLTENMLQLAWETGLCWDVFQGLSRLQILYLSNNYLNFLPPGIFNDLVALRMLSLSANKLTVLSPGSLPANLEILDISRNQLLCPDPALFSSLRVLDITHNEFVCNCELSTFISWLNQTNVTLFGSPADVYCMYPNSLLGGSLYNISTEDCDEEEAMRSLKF
UniProt O60602, residues 21-639: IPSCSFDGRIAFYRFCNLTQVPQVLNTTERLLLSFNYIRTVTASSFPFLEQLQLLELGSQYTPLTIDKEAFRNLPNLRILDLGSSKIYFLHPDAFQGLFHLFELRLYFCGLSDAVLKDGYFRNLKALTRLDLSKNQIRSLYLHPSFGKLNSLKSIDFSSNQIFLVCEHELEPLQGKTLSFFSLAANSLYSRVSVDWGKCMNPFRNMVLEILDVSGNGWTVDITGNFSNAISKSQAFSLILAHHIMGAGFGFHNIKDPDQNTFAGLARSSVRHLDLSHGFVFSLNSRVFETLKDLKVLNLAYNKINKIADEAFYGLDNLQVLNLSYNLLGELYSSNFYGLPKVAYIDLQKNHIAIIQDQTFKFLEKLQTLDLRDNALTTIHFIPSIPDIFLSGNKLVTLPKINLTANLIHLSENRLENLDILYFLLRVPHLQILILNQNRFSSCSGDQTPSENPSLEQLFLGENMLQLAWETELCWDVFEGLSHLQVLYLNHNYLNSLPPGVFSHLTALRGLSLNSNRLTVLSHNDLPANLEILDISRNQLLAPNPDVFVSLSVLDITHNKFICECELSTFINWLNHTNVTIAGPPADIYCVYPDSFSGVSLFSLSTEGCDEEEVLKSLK
UniProt O00206, residues 24-631: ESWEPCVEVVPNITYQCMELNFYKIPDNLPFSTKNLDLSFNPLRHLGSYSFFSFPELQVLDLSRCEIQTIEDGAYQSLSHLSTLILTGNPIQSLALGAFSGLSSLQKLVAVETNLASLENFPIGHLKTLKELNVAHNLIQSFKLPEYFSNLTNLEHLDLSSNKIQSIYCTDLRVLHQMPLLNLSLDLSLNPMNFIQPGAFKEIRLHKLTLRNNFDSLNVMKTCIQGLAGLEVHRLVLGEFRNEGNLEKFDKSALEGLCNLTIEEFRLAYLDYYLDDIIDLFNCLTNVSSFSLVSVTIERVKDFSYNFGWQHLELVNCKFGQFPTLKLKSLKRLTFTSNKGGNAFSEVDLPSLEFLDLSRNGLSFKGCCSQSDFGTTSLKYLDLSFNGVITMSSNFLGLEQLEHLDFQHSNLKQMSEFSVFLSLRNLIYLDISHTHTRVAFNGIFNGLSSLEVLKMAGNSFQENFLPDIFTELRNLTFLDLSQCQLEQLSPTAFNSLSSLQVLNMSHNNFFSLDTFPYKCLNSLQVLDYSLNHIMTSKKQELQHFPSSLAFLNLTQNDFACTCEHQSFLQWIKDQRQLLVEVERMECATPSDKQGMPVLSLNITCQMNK
UniProt Q172F2: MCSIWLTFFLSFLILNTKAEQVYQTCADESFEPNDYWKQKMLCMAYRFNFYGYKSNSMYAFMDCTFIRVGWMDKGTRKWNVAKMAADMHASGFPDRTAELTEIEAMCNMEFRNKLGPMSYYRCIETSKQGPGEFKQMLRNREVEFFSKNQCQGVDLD

Legend:
Test in all cases: co-IP; lysate of HEK293T cells transfected with a Myc-tagged TLR ECD incubated with 80 ng purified V5-tagged AaNRP at 4 °C, precipitated with anti-Myc tag antibody (magnetic beads), five washes with IP lysis buffer, blots for V5 and Myc; only the binder purified
[1] = target: T1, murine Toll-like receptor 1 extracellular domain (mouse) (UniProt Q9EPQ1)
T1 sequence: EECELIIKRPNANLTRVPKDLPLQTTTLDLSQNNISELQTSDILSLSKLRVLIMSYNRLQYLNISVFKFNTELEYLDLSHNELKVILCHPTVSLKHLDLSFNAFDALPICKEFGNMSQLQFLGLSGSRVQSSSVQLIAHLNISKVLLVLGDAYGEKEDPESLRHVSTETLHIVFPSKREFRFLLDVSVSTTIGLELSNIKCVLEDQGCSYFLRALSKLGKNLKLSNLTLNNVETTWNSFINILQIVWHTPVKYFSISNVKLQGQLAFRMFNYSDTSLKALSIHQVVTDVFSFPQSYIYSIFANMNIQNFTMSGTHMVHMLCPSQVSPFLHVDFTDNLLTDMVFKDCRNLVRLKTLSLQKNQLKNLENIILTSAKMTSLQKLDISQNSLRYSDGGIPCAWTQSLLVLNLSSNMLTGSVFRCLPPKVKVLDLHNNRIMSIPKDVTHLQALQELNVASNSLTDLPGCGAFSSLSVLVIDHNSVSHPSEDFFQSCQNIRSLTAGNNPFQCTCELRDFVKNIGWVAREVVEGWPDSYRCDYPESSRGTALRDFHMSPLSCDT

[2] = target: human TLR2 extracellular domain (human) (UniProt O60603)
[3] = target: murine Toll-like receptor 5 extracellular domain (mouse) (UniProt Q9JLF7)
[4] = target: human TLR5 extracellular domain (human) (UniProt O60602)
[5] = target: T2, murine Toll-like receptor 12 extracellular domain (mouse) (UniProt Q6QNU9)
T2 sequence: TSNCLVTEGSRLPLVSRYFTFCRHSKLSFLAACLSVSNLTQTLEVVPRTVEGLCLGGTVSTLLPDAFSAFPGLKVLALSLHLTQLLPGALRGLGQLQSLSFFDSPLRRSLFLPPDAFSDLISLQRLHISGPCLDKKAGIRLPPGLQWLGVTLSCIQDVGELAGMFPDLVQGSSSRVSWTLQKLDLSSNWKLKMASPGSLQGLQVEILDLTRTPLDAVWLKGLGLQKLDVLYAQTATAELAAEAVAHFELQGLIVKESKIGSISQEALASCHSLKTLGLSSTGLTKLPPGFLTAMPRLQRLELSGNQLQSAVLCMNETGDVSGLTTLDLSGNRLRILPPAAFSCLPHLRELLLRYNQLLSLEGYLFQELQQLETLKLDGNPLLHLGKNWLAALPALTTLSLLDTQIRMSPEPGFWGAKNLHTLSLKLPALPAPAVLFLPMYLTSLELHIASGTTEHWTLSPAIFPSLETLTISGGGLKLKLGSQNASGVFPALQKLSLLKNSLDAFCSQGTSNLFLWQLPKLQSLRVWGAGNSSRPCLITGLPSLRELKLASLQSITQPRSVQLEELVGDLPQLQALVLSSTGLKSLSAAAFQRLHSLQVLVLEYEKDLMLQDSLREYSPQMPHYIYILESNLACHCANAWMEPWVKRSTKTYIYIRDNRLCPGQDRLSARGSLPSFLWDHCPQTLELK

[6] = target: human TLR4 extracellular domain (human) (UniProt O00206)

Substance: A. aegypti Neutrophil Recruitment Protein (AaNRP) (from UniProt Q172F2)
- binding [1]: binds
- binding [2]: no binding (tested: 80 ng of purified AaNRP)
- binding [3]: no binding (tested: 80 ng of purified AaNRP)
- binding [4]: no binding (tested: 80 ng of purified AaNRP)
- binding [5]: no binding (tested: 80 ng of purified AaNRP)
- binding [6]: binds
